Earlier results as cited in patent US7853319B2, “Method and system for detecting electrophysiological changes in pre-cancerous and cancerous tissue and epithelium” (Epi-Sci, LLC, priority 2005, dated 2010).
For at least one compound, name, drawing or mass did not settle the structure.

Tested on: breast epithelium
Conditions: Forskolin (10M); cited from earlier work

SMILES: C=C[C@@]1(C)CC(=O)[C@]2(O)[C@@]3(C)[C@@H](O)CCC(C)(C)[C@@H]3[C@H](O)[C@H](OC(C)=O)[C@@]2(C)O1 [Forskolin]
- decrease in transepithelial resistance: 19%
- hyperpolarization of the breast epithelium (change in transepithelial potential): −2.2±0.1 mV
